From paper PMC12003892 come the findings set out here.

These are yes or no findings as the source states them, for the method shown. Binding can be weak; no strength is given. Tags and fused reporters may be left off the sequences shown.

The assay concerns the target T1, MTG3^FLAG (C-terminally FLAG-tagged MTG3) (human) (UniProt Q8NC60).
T1 sequence: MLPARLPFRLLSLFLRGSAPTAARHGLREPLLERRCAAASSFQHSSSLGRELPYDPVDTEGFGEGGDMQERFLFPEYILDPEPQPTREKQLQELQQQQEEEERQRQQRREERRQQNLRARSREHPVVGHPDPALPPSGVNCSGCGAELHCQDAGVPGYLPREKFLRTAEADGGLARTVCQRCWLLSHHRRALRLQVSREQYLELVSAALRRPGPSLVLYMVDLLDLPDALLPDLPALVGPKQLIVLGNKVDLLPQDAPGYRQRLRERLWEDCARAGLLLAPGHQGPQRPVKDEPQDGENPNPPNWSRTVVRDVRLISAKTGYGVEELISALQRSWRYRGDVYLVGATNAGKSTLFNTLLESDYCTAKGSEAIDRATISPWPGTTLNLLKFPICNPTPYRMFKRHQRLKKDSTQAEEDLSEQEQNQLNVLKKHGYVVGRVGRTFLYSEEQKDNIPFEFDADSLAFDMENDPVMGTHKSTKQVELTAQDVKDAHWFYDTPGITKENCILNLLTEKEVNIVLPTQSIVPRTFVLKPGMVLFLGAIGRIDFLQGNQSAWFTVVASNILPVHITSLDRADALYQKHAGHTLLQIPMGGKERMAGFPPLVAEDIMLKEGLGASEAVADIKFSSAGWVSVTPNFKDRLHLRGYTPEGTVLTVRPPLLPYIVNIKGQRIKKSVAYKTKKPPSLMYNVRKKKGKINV
The assay is described as follows: cryo-EM structure; native mtSSU complexes from lysed mitoplasts isolated by FLAG-immunoprecipitation of MTG3^FLAG, eluate crosslinked with 0.15% glutaraldehyde; single-particle cryo-EM, states A-G.

“METTL15 (human (endogenous in HEK293)) (enzyme)”: the binding entry was “binds”.
To uS11m (human (endogenous in HEK293)) belongs “binds”.
